Data taken from PMC4254994 (PLoS ONE, 2014).
Results are given in words; binding and its absence hold for the method and conditions named.

Sequences of proteins named here, by UniProt entry; tags and fusion partners are left off.
UniProt P9WKX3, whole entry: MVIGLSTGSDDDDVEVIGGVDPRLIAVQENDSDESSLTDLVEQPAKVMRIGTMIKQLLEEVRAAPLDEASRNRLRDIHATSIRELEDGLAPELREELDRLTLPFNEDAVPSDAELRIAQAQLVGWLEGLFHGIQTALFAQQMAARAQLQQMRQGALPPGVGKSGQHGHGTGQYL

Biological target: Wild type 20S proteasome PrcAB (mature holoparticle), Strep-tagged (Mycobacterium tuberculosis) (UniProt P9WHU1)
Assay: pull-down; both purified

Bacterial proteasome activator Bpa (Rv3780) of Mycobacterium tuberculosis (from UniProt P9WKX3 1-174)
binding: no binding
